Data from US20110008829A1.
Results are given in words; binding and its absence hold for the method and conditions named. Binding seen in cells or lysates may run through a third protein. Some results given as binding are weak or reduced against the parent protein; the word gives no strength. Where a sequence is shown, tags or fusion partners need not be part of it.

Sequences of proteins named here, by UniProt entry; tags and fusion partners are left off. A change or cut given only in a name is not applied to a line headed by its entry.
UniProt Q64010: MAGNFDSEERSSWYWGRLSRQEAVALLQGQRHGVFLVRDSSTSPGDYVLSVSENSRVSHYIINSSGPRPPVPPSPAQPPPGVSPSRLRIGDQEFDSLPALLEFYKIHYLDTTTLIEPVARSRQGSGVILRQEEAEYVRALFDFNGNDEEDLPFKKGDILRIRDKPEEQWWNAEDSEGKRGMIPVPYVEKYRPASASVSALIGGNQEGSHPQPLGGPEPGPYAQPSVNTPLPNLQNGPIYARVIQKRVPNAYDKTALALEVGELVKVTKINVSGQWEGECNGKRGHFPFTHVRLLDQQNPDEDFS

Molecular target: T1, N-terminal GST-tagged HMGS with 1 C-terminal SH3 peptide ligand (Saccharomyces cerevisiae) (UniProt P54839)
T1 sequence: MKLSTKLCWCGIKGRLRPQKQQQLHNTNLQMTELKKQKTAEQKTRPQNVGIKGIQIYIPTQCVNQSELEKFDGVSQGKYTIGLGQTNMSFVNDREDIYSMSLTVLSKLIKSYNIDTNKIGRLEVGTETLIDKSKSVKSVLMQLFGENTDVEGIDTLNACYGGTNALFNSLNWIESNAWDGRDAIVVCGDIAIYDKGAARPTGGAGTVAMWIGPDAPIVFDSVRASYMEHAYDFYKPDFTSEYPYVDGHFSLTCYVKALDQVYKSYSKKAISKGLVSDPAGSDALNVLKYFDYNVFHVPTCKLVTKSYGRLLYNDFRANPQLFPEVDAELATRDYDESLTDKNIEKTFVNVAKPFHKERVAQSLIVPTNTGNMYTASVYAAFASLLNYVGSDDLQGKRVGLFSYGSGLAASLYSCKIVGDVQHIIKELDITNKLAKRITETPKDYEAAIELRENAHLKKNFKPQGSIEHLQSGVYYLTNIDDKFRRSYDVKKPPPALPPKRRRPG
Experiment: GST pull-down, GST-HMGS as bait

- binding: binds
Substance: HMGR with an N-terminal SH3 domain (from UniProt Q64010 134-191; P12683 554-1054) (enzyme)
